The supplement of paper PMC12542422
Counter-ions that a name gives are not always drawn. ± gives the standard deviation of the averaged measurements. This is one part of the list. Values are raw readings; no control value is given beside them.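 Ribosome-assembly readouts in HeLa cells were imaged via ENP1 staining, with or without export block, or inducible tagged ribosomal protein reporters. Machine learning classified per-cell signal location versus solvent (DMSO) controls. Hits surpassed the DMSO false-positive mean by five standard deviations and were visually confirmed; three biological replicates.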

What was measured:
[1] = system: HeLa K (ENP1 immunofluorescence, +LMB); test: fraction of cells with nucleolar or nucleolar/nucleoplasmic ENP1 signal (MainHitrate); higher = more cells with nucleolar/nuclear readout signal (for ENP1 -LMB: less RNAPI inhibition; for +LMB ENP1 and RP reporters: stronger nuclear/nucleolar retention, i.e. ribosome biogenesis defect); details: concentration: 1 µM; treatment time: 6 h; ENP1 +LMB; leptomycin B: 20 nM, last 1.5 h
[2] = system: HeLa K (ENP1 immunofluorescence, no LMB); test: as above; details: concentration: 1 µM; treatment time: 6 h; ENP1 -LMB; leptomycin B: none
HeLa RPS2-YFP reporter = test: fraction of reporter-positive cells with nuclear (nucleolar or nucleolar/nucleoplasmic) RPS2-YFP (MainHitrate); higher = more cells with nucleolar/nuclear readout signal (for ENP1 -LMB: less RNAPI inhibition; for +LMB ENP1 and RP reporters: stronger nuclear/nucleolar retention, i.e. ribosome biogenesis defect); details: concentration: 1 µM; treatment time: 6 h
HeLa RPL29-GFP reporter = test: fraction of reporter-positive cells with nuclear (nucleolar or nucleolar/nucleoplasmic) RPL29-GFP (MainHitrate); higher = more cells with nucleolar/nuclear readout signal (for ENP1 -LMB: less RNAPI inhibition; for +LMB ENP1 and RP reporters: stronger nuclear/nucleolar retention, i.e. ribosome biogenesis defect); details: concentration: 1 µM; treatment time: 6 h

SMILES	fraction [1]	fraction [2]	fraction of reporter-positive cells with nuclear (HeLa RPS2-YFP reporter)	fraction of reporter-positive cells with nuclear (HeLa RPL29-GFP reporter)
CCOCC(O)COc1ccc(NC(=O)CC[S+](C)C)cc1 (configuration not stated) [Suplatast tosylate]	0.0999 ± 0.14	0.991 ± 0.016	0.108 ± 0.059	0.226 ± 0.093
Nc1nc2[nH]cnc2c(=S)[nH]1 [Thioguanine]	0.0861 ± 0.095	0.9992 ± 0.0014	0.13 ± 0.068	0.201 ± 0.058
C[C@H](CCC(=O)O)[C@H]1CC[C@H]2[C@@H]3[C@@H](O)C[C@@H]4C[C@H](O)CC[C@]4(C)[C@H]3CC[C@]12C [Ursodiol (Actigal Urso)]	0.139 ± 0.14	0.9988 ± 0.002	0.11 ± 0.06	0.203 ± 0.089
O=c1[nH]cc(F)c(=O)[nH]1 [Adrucil (Fluorouracil)]	0.14 ± 0.11	0.9978 ± 0.0038	0.0974 ± 0.07	0.213 ± 0.063
CC1=NN(c2ccccc2)C(=O)C1 [Edaravone (MCI-186)]	0.0868 ± 0.064	0.9982 ± 0.003	0.091 ± 0.046	0.204 ± 0.048
CCN(CCCc1ccccc1)CCCc1ccccc1 [Alverine Citrate]	0.0973 ± 0.15	0.987 ± 0.023	0.124 ± 0.089	0.204 ± 0.069
O=c1oc2cc(O)ccc2s1 [Tioxolone]	0.103 ± 0.14	0.987 ± 0.023	0.107 ± 0.083	0.232 ± 0.064
CS(=O)(=O)c1ccc(C(=O)Nc2ccc(Cl)c(-c3ccccn3)c2)c(Cl)c1 [Vismodegib (GDC-0449)]	0.0597 ± 0.045	0.9984 ± 0.0027	0.109 ± 0.07	0.188 ± 0.043
O=C(OCC(O)CO)c1ccccc1Nc1ccnc2cc(Cl)ccc12 (configuration not stated) [Glafenine HCl]	0.14 ± 0.15	0.9993 ± 0.0012	0.195 ± 0.18	0.282 ± 0.22
CCCCc1nc(Cl)c(CO)n1Cc1ccc(-c2ccccc2-c2nnn[nH]2)cc1 [Losartan potassium]	0.133 ± 0.15	0.9979 ± 0.0036	0.0986 ± 0.051	0.171 ± 0.079
O=C1OC(CN2CCOCC2)CN1/N=C/c1ccc([N+](=O)[O-])o1 (configuration not stated) [Furaltadone HCl]	0.0716 ± 0.1	0.994 ± 0.011	0.122 ± 0.1	0.21 ± 0.065
C=C1c2c(Cl)ccc(O)c2C(=O)C2=C(O)[C@]3(O)C(=O)C(C(N)=O)=C(O)[C@@H](N(C)C)[C@@H]3[C@@H](O)[C@H]12.O=C(O)c1cc(S(=O)(=O)O)ccc1O [Meclocycline Sulfosalicylate]	0.132 ± 0.19	0.986 ± 0.024	0.14 ± 0.15	0.335 ± 0.27
N#C[C@@H]1C[C@@H]2C[C@@H]2N1C(=O)[C@@H](N)C12CC3CC(CC(O)(C3)C1)C2	0.0461 ± 0.012	0.9981 ± 0.0033	0.128 ± 0.086	0.23 ± 0.06
Nc1ncn([C@H]2C[C@H](O)[C@@H](CO)O2)c(=O)n1 [Decitabine]	0.0605 ± 0.061	0.992 ± 0.013	0.0905 ± 0.072	0.221 ± 0.089
COc1ccc([C@H]2CNC(=O)C2)cc1OC1CCCC1 [S-(+)-Rolipram]	0.0981 ± 0.15	0.997 ± 0.0052	0.0929 ± 0.038	0.227 ± 0.089
NCC(=O)CCC(=O)O [5-Aminolevulinic acid hydrochloride]	0.153 ± 0.23	0.991 ± 0.015	0.109 ± 0.054	0.242 ± 0.085
Nc1ccn([C@@H]2O[C@H](CO)[C@@H](O)[C@@H]2O)c(=O)n1 [Cytarabine]	0.132 ± 0.17	0.9974 ± 0.0044	0.0711 ± 0.028	0.148 ± 0.061
CCOc1ccc2ccccc2c1C(=O)N[C@@H]1C(=O)N2[C@@H]1SC(C)(C)[C@@H]2C(=O)O [nafcillin sodium monohydrate]	0.076 ± 0.093	0.994 ± 0.011	0.122 ± 0.098	0.227 ± 0.045
c1ccc(-c2ccc(C(c3ccccc3)n3ccnc3)cc2)cc1 (configuration not stated) [Bifonazole]	0.112 ± 0.15	0.99 ± 0.017	0.0977 ± 0.071	0.241 ± 0.075
CCN1CCN(C(=O)N[C@@H](C(=O)N[C@@H]2C(=O)N3[C@@H]2SC(C)(C)[C@@H]3C(=O)O)c2ccccc2)C(=O)C1=O [Piperacillin Sodium]	0.101 ± 0.15	0.985 ± 0.025	0.113 ± 0.1	0.199 ± 0.068
O=C([O-])C(O)[C@H](O)[C@@H](O)[C@H](O)[C@H](O)CO.O=C([O-])C(O)[C@H](O)[C@@H](O)[C@H](O)[C@H](O)CO.[Ca+2] (some centres not stated) [Calcium Gluceptate]	0.0627 ± 0.066	0.9963 ± 0.0063	0.154 ± 0.16	0.289 ± 0.21
Cc1cc(=O)n(-c2ccccc2)n1C [Antipyrine]	0.0782 ± 0.095	0.983 ± 0.029	0.115 ± 0.097	0.214 ± 0.086
CN(Cc1ccc(C(C)(C)C)cc1)Cc1cccc2ccccc12 [Butenafine HCl]	0.0538 ± 0.064	0.979 ± 0.035	0.123 ± 0.098	0.224 ± 0.073

Sorted by molecular weight (largest number first): part of the list above.
SMILES	fraction [1]	fraction [2]	fraction of reporter-positive cells with nuclear (HeLa RPS2-YFP reporter)	fraction of reporter-positive cells with nuclear (HeLa RPL29-GFP reporter)
c1ccc(-c2ccc(C(c3ccccc3)n3ccnc3)cc2)cc1 (configuration not stated) [Bifonazole]	0.112 ± 0.15	0.99 ± 0.017	0.0977 ± 0.071	0.241 ± 0.075
CCN(CCCc1ccccc1)CCCc1ccccc1 [Alverine Citrate]	0.0973 ± 0.15	0.987 ± 0.023	0.124 ± 0.089	0.204 ± 0.069
CC1=NN(c2ccccc2)C(=O)C1 [Edaravone (MCI-186)]	0.0868 ± 0.064	0.9982 ± 0.003	0.091 ± 0.046	0.204 ± 0.048
